Test results taken from the supplement of paper PMC8728848.
The other results are listed elsewhere or left out.

How the values were obtained:
Test in all cases: glycan array binding signal (z-score within array); higher = stronger binding
Settings in all cases: glycan notation: IUPAC condensed, linker removed
[1] = biological target: Fuc(a1-2)Gal
Method in brief: (§1)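 The Consortium for Functional Glycomics database supplied 3228 glycan arrays, of which those lacking an available protein sequence were dropped. The binding signal, a within-array Z-score, was averaged across arrays of the same protein sequence and across linkers. Negative scores can be read as non-binding.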

[2] = biological target: Fuc(a1-2)Gal(b1-3)GalNAc
Method in brief: as §1

[3] = biological target: Fuc(a1-2)Gal(b1-3)GalNAc(a1-3)[Fuc(a1-2)]Gal(b1-4)Glc
Method in brief: as §1

[4] = biological target: Fuc(a1-2)Gal(b1-3)GalNAc(a1-3)[Fuc(a1-2)]Gal(b1-4)GlcNAc
Method in brief: as §1

[5] = biological target: Fuc(a1-2)Gal(b1-3)GalNAc(b1-3)Gal
Method in brief: as §1

[6] = biological target: Fuc(a1-2)Gal(b1-3)GalNAc(b1-3)Gal(a1-4)Gal(b1-4)Glc
Method in brief: as §1

[7] = biological target: Fuc(a1-2)Gal(b1-3)GalNAc(b1-4)[Neu5Ac(a2-3)]Gal(b1-4)Glc
Method in brief: as §1

[8] = biological target: Fuc(a1-2)Gal(b1-3)GlcNAc
Method in brief: as §1

[9] = biological target: Fuc(a1-2)Gal(b1-3)GlcNAc(b1-2)Man(a1-3)[Fuc(a1-2)Gal(b1-3)GlcNAc(b1-2)Man(a1-6)]Man(b1-4)GlcNAc(b1-4)GlcNAc
Method in brief: as §1

[10] = biological target: Fuc(a1-2)Gal(b1-3)GlcNAc(b1-2)Man(a1-3)[Fuc(a1-2)Gal(b1-3)GlcNAc(b1-2)Man(a1-6)]Man(b1-4)GlcNAc(b1-4)[Fuc(a1-6)]GlcNAc
Method in brief: as §1

[11] = biological target: Fuc(a1-2)Gal(b1-3)GlcNAc(b1-3)Gal(b1-4)Glc
Method in brief: as §1

[12] = biological target: Fuc(a1-2)Gal(b1-3)GlcNAc(b1-3)GalNAc
Method in brief: as §1

[13] = biological target: Fuc(a1-2)Gal(b1-3)GlcNAc(b1-3)[Fuc(a1-2)Gal(b1-3)GlcNAc(b1-6)]GalNAc
Method in brief: as §1

[14] = biological target: Fuc(a1-2)Gal(b1-3)GlcNAc(b1-3)[Gal(b1-4)GlcNAc(b1-6)]Gal(b1-4)Glc
Method in brief: as §1

[15] = biological target: Fuc(a1-2)Gal(b1-3)GlcNAc(b1-3)[Neu5Ac(a2-6)Gal(b1-4)GlcNAc(b1-6)]Gal(b1-4)Glc
Method in brief: as §1

[16] = biological target: Fuc(a1-2)Gal(b1-3)GlcNAc6S
Method in brief: as §1

[17] = biological target: Fuc(a1-2)Gal(b1-3)[Fuc(a1-4)]GlcNAc
Method in brief: as §1

[18] = biological target: Fuc(a1-2)Gal(b1-3)[Fuc(a1-4)]GlcNAc(b1-2)Man(a1-3)[Fuc(a1-2)Gal(b1-3)[Fuc(a1-4)]GlcNAc(b1-2)Man(a1-3)]Man(b1-4)GlcNAc(b1-4)GlcNAc
Method in brief: as §1

[19] = biological target: Fuc(a1-2)Gal(b1-3)[Fuc(a1-4)]GlcNAc(b1-2)Man(a1-3)[Fuc(a1-2)Gal(b1-3)[Fuc(a1-4)]GlcNAc(b1-2)Man(a1-6)]Man(b1-4)GlcNAc(b1-4)[Fuc(a1-6)]GlcNAc(b1-4)[Fuc(a1-6)]GlcNAc
Method in brief: as §1

[20] = biological target: Fuc(a1-2)Gal(b1-3)[Fuc(a1-4)]GlcNAc(b1-3)[Fuc(a1-3)[Gal(b1-4)]GlcNAc(b1-6)]Gal(b1-4)Glc
Method in brief: as §1

[21] = biological target: Fuc(a1-2)Gal(b1-3)[Fuc(a1-4)]GlcNAc(b1-3)[Gal(b1-4)GlcNAc(b1-6)]Gal(b1-4)Glc
Method in brief: as §1

[22] = biological target: Fuc(a1-2)Gal(b1-4)Glc
Method in brief: as §1

[23] = biological target: Fuc(a1-2)Gal(b1-4)Glc6S
Method in brief: as §1

[24] = biological target: Fuc(a1-2)Gal(b1-4)GlcNAc
Method in brief: as §1

[25] = biological target: Fuc(a1-2)Gal(b1-4)GlcNAc(b1-2)Man
Method in brief: as §1

[26] = biological target: Fuc(a1-2)Gal(b1-4)GlcNAc(b1-2)Man(a1-3)[Fuc(a1-2)Gal(b1-4)GlcNAc(b1-2)Man(a1-6)]Man(b1-4)GlcNAc(b1-4)GlcNAc
Method in brief: as §1

[27] = biological target: Fuc(a1-2)Gal(b1-4)GlcNAc(b1-2)Man(a1-3)[Fuc(a1-2)Gal(b1-4)GlcNAc(b1-2)Man(a1-6)]Man(b1-4)GlcNAc(b1-4)[Fuc(a1-6)]GlcNAc
Method in brief: as §1

[28] = biological target: Fuc(a1-2)Gal(b1-4)GlcNAc(b1-2)[Fuc(a1-2)Gal(b1-4)GlcNAc(b1-4)]Man(a1-3)[Fuc(a1-2)Gal(b1-4)GlcNAc(b1-2)Man(a1-6)]Man(b1-4)GlcNAc(b1-4)GlcNAc
Method in brief: as §1

[29] = biological target: Fuc(a1-2)Gal(b1-4)GlcNAc(b1-3)Gal(b1-4)GlcNAc
Method in brief: as §1

[30] = biological target: Fuc(a1-2)Gal(b1-4)GlcNAc(b1-3)Gal(b1-4)GlcNAc(b1-2)Man(a1-3)[Fuc(a1-2)Gal(b1-4)GlcNAc(b1-3)Gal(b1-4)GlcNAc(b1-2)Man(a1-6)]Man(b1-4)GlcNAc(b1-4)GlcNAc
Method in brief: as §1

B1: Mnn9-2N3 (Aspergillus fumigatus) (protein)
chain: MAVARRMRRTNPITLLLAAILAIGFFIFVLSPSTTSASPVKAGSASSSSTSQQRREDNAAENPLSPPTKPFFKSQPVRHDGQQAPPPVVQYNLNQLSSTSTSAANGERILILTPMARFVPEYWDNVVKLTYPHELISIGFIIPKNKEGNAALAALEAAIAKTQSGPIDKRFASISILRQDFEPPLQSQDEKERHKISNQKARRESMSRARNSLLFTTLGPATAWVLWLDADIVETPPTLIQDLTAHDHPVLVPNCYQRYYNSEKKKMDVRPYDYNSWIDSSTAQSMAAEMGPDEILLEGYAEMPTYRTLMAHLADTANPNPKKVIELDGVGGTALMVKAEVHRDGAMFPAFPFYHLVETEGFAKMAKRLGYSVYGLPDYFVSRNFFFFFFFFFFG
- glycan array binding signal (z-score) [1]: -0.532
- glycan array binding signal (z-score) [2]: 0.184
- glycan array binding signal (z-score) [3]: -0.385
- glycan array binding signal (z-score) [4]: -0.911
- glycan array binding signal (z-score) [5]: -0.413
- glycan array binding signal (z-score) [6]: -0.365
- glycan array binding signal (z-score) [7]: 0.057
- glycan array binding signal (z-score) [8]: 0.042
- glycan array binding signal (z-score) [9]: -1.81
- glycan array binding signal (z-score) [10]: -0.531
- glycan array binding signal (z-score) [11]: -0.226
- glycan array binding signal (z-score) [12]: 1.17
- glycan array binding signal (z-score) [13]: -0.179
- glycan array binding signal (z-score) [14]: 0.048
- glycan array binding signal (z-score) [15]: 1.56
- glycan array binding signal (z-score) [16]: -0.49
- glycan array binding signal (z-score) [17]: 0.843
- glycan array binding signal (z-score) [18]: 0.745
- glycan array binding signal (z-score) [19]: 1.08
- glycan array binding signal (z-score) [20]: 0.126
- glycan array binding signal (z-score) [21]: -0.504
- glycan array binding signal (z-score) [22]: -0.089
- glycan array binding signal (z-score) [23]: -0.499
- glycan array binding signal (z-score) [24]: -0.527
- glycan array binding signal (z-score) [25]: -1.25
- glycan array binding signal (z-score) [26]: -0.758
- glycan array binding signal (z-score) [27]: 1.86
- glycan array binding signal (z-score) [28]: 0.208
- glycan array binding signal (z-score) [29]: 0.5
- glycan array binding signal (z-score) [30]: 0.93
